The whole screen tested about 360,000 compounds, of which about 9,100 (2.5%) were called active. Inconclusive means that the source gave no clear call. Such entries were picked first, then a sample of the others. No stated cut-off is given here; in the data, active means max response below about -50%; inconclusive means no clear call, values can overlap the other calls; inactive means above that.
molecular target: D(3) dopamine receptor (Homo sapiens) (UniProt P35462); assay: qHTS of D3 Dopamine Receptor Antagonist: qHTS; conditions: D3R cells, DiscoveRx beta-arrestin luminescence, antagonist mode; hits give low values
Outline: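 Cells expressing the human receptor were seeded at 1500 cells/well, incubated overnight at 37 degrees C in 5% CO2, then exposed to library compounds with dopamine controls for 90 minutes at 37 degrees C before luminescent detection.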
On the % scale 0 is the no-effect control and ±100 the full control effect.

Amino acid sequences for entries named in this document (tags omitted).
UniProt P35462, whole entry, looked up: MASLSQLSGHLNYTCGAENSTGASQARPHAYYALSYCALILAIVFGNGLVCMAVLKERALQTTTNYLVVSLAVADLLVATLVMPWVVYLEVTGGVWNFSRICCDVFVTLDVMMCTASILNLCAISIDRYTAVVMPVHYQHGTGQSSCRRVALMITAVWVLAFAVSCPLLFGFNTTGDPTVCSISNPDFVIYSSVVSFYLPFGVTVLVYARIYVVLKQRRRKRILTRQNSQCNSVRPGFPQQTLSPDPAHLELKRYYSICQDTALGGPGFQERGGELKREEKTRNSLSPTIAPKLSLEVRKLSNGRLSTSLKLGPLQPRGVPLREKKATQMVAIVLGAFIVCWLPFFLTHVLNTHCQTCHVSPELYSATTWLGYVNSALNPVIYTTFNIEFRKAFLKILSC

Compound	max response, negative = inhibition
O=S(=O)(Nc1ccc(-n2cnnn2)cc1)c1ccccc1F	inconclusive: -38.4%
CC1=C([N+](=O)[O-])C(c2ccccc2)C2=C(N1)c1ccccc1C2=O (configuration not stated)	inconclusive: -31.7%
CN1CCNC(=O)C1CC(=O)NCCC1=CCCCC1 (configuration not stated)	inconclusive: -31.3%
C=CCn1c(CSCc2ccccc2)nnc1SCC(=O)N1CCN(c2ccccc2)CC1	inactive: 15.9%
COc1ccc(C)cc1S(=O)(=O)N(C)CC(=O)NCc1ccco1	inconclusive: -36.3%
CCCCN(CCCC)CC(O)CN(c1cc([N+](=O)[O-])ccc1OC)S(=O)(=O)c1ccccc1 (configuration not stated)	inconclusive: -45%
Oc1nc(Nc2ccccc2)sc1/C=C1\C=Nc2ccccc21	inconclusive: -33.9%
COC(=O)[C@]12CCCCC=C1N(CCC1=CCCCC1)C(=O)[C@H](CC(=O)N1CCN(C(=O)c3ccco3)CC1)C2	inactive: 2.54%
O=C(N/N=C/c1cc([N+](=O)[O-])ccc1O)C(O)(c1ccccc1)c1ccccc1	active: -55.5%
COc1ccc(-c2[nH]c(-c3ccc(C(=O)O)cc3)nc2-c2ccccc2)cc1	inconclusive: -49%
O=C1N[C@@H](Cc2ccccc2)C(=O)N2[C@@H]3N(S(=O)(=O)c4ccccc4)c4ccccc4[C@]3(Br)C[C@@H]12	inconclusive: -35.1%
CN1C(=O)/C(=C/c2ccc(O)c([N+](=O)[O-])c2)NC1=S	active: -73.9%
COC(=O)C1=C(C)Nc2c(c(=O)n(C)c(=O)n2C)C1c1ccc(Cl)cc1 (configuration not stated)	inactive: 4.58%
CCN(CC)CCn1c(O)c(N=O)c2ccccc21	inactive: -1.83%
Cc1ccc(OCCN2C(=O)CSC2=O)cc1	inconclusive: -33.8%
O=C(CN1C(=O)S/C(=C\C=C\c2ccccc2)C1=O)Nc1cccc(O)c1	inactive: -13.2%
CC(=O)N1N=C(c2cccc([N+](=O)[O-])c2)OC1(C)CC(=O)Nc1ccccc1 (configuration not stated)	inactive: 9.88%
COC(=O)CNC(=O)CCc1nnc(C2(c3ccc(Cl)cc3)CCC2)o1	inactive: -17%
Cc1c(C(=O)OCC(=O)N2CC(=O)Nc3ccccc32)oc2ccc(Br)cc12	inconclusive: -30.6%
O=C(NCC(=O)N1CCCCCC1)c1ccc(OC(F)F)cc1	inconclusive: -33.1%
O=C(CN1C(=O)COc2ccccc21)NCCCN1CCN(Cc2ccccc2)CC1	inconclusive: -32.4%
Cc1ccc2nc3c(cc(C(=O)NCCc4ccccc4)c(=N)n3CCN3CCOCC3)c(=O)n2c1	inconclusive: -31.9%

Compound	max response, negative = inhibition
O=C(O)c1cc(O)c2c(c1)[C@@H]([C@H]1c3cc(C(=O)O)cc(O)c3C(=O)c3c(O[C@@H]4O[C@H](CO)[C@@H](O)[C@H](O)[C@H]4O)cccc31)c1cccc(OC3O[C@H](CO)[C@@H](O)[C@H](O)[C@H]3O)c1C2=O (some centres not stated)	active: -56.2%
CC(=O)NCCNc1nc2c(-c3cccc(C(F)(F)F)c3)nnn2c2ccccc12	inconclusive: -40.8%
O=C(OCC(=O)N1CCCc2ccccc21)c1ccc(Br)o1	inconclusive: -38.8%
Cc1c(CC(=O)N2C[C@H]3C[C@@H](C2)c2cccc(=O)n2C3)c(=O)oc2cc3occ(C(C)(C)C)c3cc12	inconclusive: -39%
O=S(=O)(Nc1ccc(S(=O)(=O)Nc2nccs2)cc1)c1ccc(Br)cc1	inactive: -1.3%
CCCCn1c(N)c(N(CC(C)C)C(=O)CSCC(=O)Nc2ccc(C)cc2)c(=O)[nH]c1=O	inconclusive: -39.8%
Cc1cc(=S)[nH]c2c(C)cccc12	inconclusive: -31.4%
CCOC(=O)N1CCN(CC(=O)Nc2ccc(F)c(F)c2)CC1	inconclusive: -34%
Nc1cccc(S(=O)(=O)c2cccc(N)c2)c1	inconclusive: -32.9%
CN(Cc1nc(-c2ccncc2)no1)S(=O)(=O)c1ccc(Cl)cc1	inconclusive: -42.1%
N/C(=N\OC(=O)c1ccccc1Br)c1ccc([N+](=O)[O-])cc1	active: -70.8%
CC1(C)NC(=O)N(CC(O)CN2CCOCC2)C1=O (configuration not stated)	inconclusive: -30.1%
Cc1noc(/C=C/N(C)C)c1S(=O)(=O)N1CCCC(C(=O)NCc2ccccc2Cl)C1 (configuration not stated)	inactive: -19.6%
Oc1c(Cl)cc(Cl)cc1/C=N/c1nc(-c2ccc(Cl)cc2)cs1	active: -82%
Cc1cccc(C)c1N1CCN(C(=O)c2ccc3c(c2)OCO3)CC1	inactive: -21%
CC(=O)c1cccc(NC(=O)c2cc(C(C)C)on2)c1	inactive: 14.9%
O=S(=O)(c1ccc(OCC(O)CN2CCN(c3ccccc3Cl)CC2)cc1)N1CCOCC1 (configuration not stated)	active: -73%
NC(=O)c1ccc2c(=O)c(O)c(-c3cc(Cl)c(N)c(Cl)c3)[nH]c2c1	inconclusive: -48.8%
Clc1cccc(OCCOCCN2CCNCC2)c1Cl	inconclusive: -42.9%
S=c1[nH]nc(-c2ccco2)n1-c1ccc(Cl)cc1	inconclusive: -41.5%
CC1(C(=O)NS(=O)(=O)c2ccc(F)cc2F)CCN1C(=O)Cc1ccccc1Cl (configuration not stated)	inconclusive: -38.3%
CC(C)c1nnc(NC(=O)c2ccc(N3C(=O)CCC3=O)cc2)s1	inactive: 6.33%

Compound	max response, negative = inhibition
c1ccc2c(OCCCCN3CCOCC3)cccc2c1	active: -59.7%
O=C(O)C1CCN(c2c([N+](=O)[O-])cc(C(F)(F)F)cc2[N+](=O)[O-])CC1	inconclusive: -30.7%
CC(C)OCCCn1c(=N)c(C(N)=S)cc2c(=O)n3ccccc3nc21	inactive: 26.7%
C(=Nn1cnnc1)c1ccc2c(c1)CCC2	inconclusive: -31.6%
CCN(CC)CCn1c(OC)cc(=O)[nH]c1=O	inconclusive: -37.3%
COc1ccc(C(=O)CSc2nnc(-c3ccoc3C)n2CC2CCCO2)cc1 (configuration not stated)	inconclusive: -44.7%
CC(C)c1cccc(-c2csc(C(C)(O)c3ccccc3)n2)c1 (configuration not stated)	active: -56.8%
Cc1ccc(S(=O)(=O)N(CCC#N)CCN2CCCC2)cc1	inconclusive: -39.8%
CCOC(=O)Sc1nc2ncncc2[nH]1	inconclusive: -35.4%
C=CCn1c(N)cc(=O)nc1SCC(=O)N1CCN(c2ccc(F)cc2)CC1	active: -153%
O=C(CCc1nnc(Cc2cccc(C(F)(F)F)c2)o1)NCCc1ccccc1F	inconclusive: -47.9%
O=C(NC1(O)C(=O)c2ccccc2C1=O)c1ccccc1	inconclusive: -31.4%
CN1C(=O)c2cccc3c(S(=O)(=O)N(C)C)ccc1c23	inactive: 18.4%
COc1ccccc1/C=N/Nc1cc(C)nc2ccc(C)cc12	inactive: 23.6%
Clc1ccc(Cc2noc(Cc3ccccc3)n2)cc1Cl	inconclusive: -39.9%
Cc1onc(-c2c(Cl)cccc2Cl)c1C(=O)NCC1CCCO1 (configuration not stated)	active: -105%
C=CCOc1ccc(C2NC(=O)c3ccccc3O2)cc1OC (configuration not stated)	inconclusive: -38.5%
CCOC(=O)CNC(=O)CSc1nnc(COc2ccc(Cl)cc2)n1CC	active: -55.4%
O=C(N/N=C\c1cc([N+](=O)[O-])ccc1N1CCCC1)c1ccccn1	inconclusive: -44.8%
O=C(CCCNS(=O)(=O)c1cccc2nsnc12)NCCN1CCN(c2ccccc2F)CC1	active: -84.7%
COc1ccc(C(=O)C(CCCCC(CN(C)C)C(=O)c2ccc(OC)cc2)CN(C)C)cc1 (configuration not stated)	inconclusive: -40.2%
CCOc1ccc(OCCCC(=O)N2CCN(S(=O)(=O)c3ccccc3C#N)CC2)cc1	inconclusive: -41.2%

Compound	max response, negative = inhibition
COc1ccc(-c2ccc(C(=O)NCCN(C)C)c3occc23)c(C)c1	inconclusive: -44.6%
C=CCNC(=O)c1ccc(CN2CCC(Cc3ccccc3)CC2)cc1	inconclusive: -34.2%
C=CCn1c(-c2ccccc2)nc(=S)c2c1CCCC2	inconclusive: -43.4%
O=C(NCCN1CCCC1)c1ccc(Cl)cc1Cl	inconclusive: -45.5%
CCC1CCc2sc(C(=O)NCC(c3ccccc3OC)N3CCCC3)cc2C1 (configuration not stated)	inconclusive: -44.9%
Cc1nn(CC(=O)NCCc2ccccc2)c(=O)c2cccn12	inconclusive: -45.5%
COc1cc(/C=C(\C#N)C(=O)NCC2CCCO2)ccc1OCC(N)=O (configuration not stated)	inconclusive: -30.4%
O=c1[nH][nH]c(C(F)(F)F)c1C=Nc1ccccc1	active: -53.9%
CN1CCN(/N=C/c2ccc(OCc3ccccc3)cc2)CC1	inconclusive: -35.8%
CC(=O)O[C@H]1C2OC(=O)C(C)=C2[C@@H]2OC(=O)[C@]3(CCC4OC41C)OC23 (some centres not stated)	inactive: 0%
Cc1ccc(NC(=O)Nc2ccc3c(c2)CCC3)cc1C	inactive: 0.819%
Cc1cc(NS(=O)(=O)c2ccc(NC(=O)C(c3ccccc3)c3ccccc3)cc2)no1	inconclusive: -33.4%
COCC1CCN(C(=O)c2ccc3oc(Cc4ccc(Cl)cc4)nc3c2)C1 (configuration not stated)	inactive: -10.6%
Clc1ccc(OCCn2c(-c3ccco3)nc3ccccc32)cc1	inconclusive: -44.3%
CCCN1CCCc2cc(CN(CCCN3CCOCC3)C(=O)Nc3ccc(OCC)cc3)ccc21	inconclusive: -35.1%
CSc1ccccc1N=CC1=C(O)CC(C)(C)CC1=O	inconclusive: -42%
CN1CCN(C(=O)c2ccc(-c3ccc(Br)cc3)o2)CC1	inconclusive: -35.8%
C/C=C(\C)CN1CCN(c2cc(C)ccc2C)CC1	active: -85.7%
c1ccc(SCCN2CCN(c3ccccc3)CC2)cc1	active: -103%
CC(Oc1cc(Cl)ccc1Cl)C(=O)N/N=C\c1ccnn1C (configuration not stated)	inactive: 5.25%
CN(C)C(CNc1ccc(C(F)(F)F)cc1[N+](=O)[O-])c1ccccc1 (configuration not stated)	inconclusive: -43%

Seven compounds from above, arranged by molar mass, smallest number first.
Compound	max response, negative = inhibition
C(=Nn1cnnc1)c1ccc2c(c1)CCC2	inconclusive: -31.6%
CCN(CC)CCn1c(OC)cc(=O)[nH]c1=O	inconclusive: -37.3%
Cc1nn(CC(=O)NCCc2ccccc2)c(=O)c2cccn12	inconclusive: -45.5%
Clc1ccc(OCCn2c(-c3ccco3)nc3ccccc32)cc1	inconclusive: -44.3%
O=C(OCC(=O)N1CCCc2ccccc21)c1ccc(Br)o1	inconclusive: -38.8%
CCCCn1c(N)c(N(CC(C)C)C(=O)CSCC(=O)Nc2ccc(C)cc2)c(=O)[nH]c1=O	inconclusive: -39.8%
O=C1N[C@@H](Cc2ccccc2)C(=O)N2[C@@H]3N(S(=O)(=O)c4ccccc4)c4ccccc4[C@]3(Br)C[C@@H]12	inconclusive: -35.1%
